Results: publication PMC10535880, “Caco-2 Cell Sheet Partially Laminated with HT29-MTX Cells as a Novel In Vitro Model of Gut Epithelium Drug Permeability” (Pharmaceutics, 2023)

What was measured:
in vitro [1] = details: human
in vitro [2] = details: human, Caco-2
[3] = tested on: Caco-2/HT29-MTX partially laminated model; details: 9:1 ratio of Caco-2/HT29-MTX

Papp at 2 h, 200 μM (in vitro [1]): 510 ± 240 ×10⁻⁶ cm/s
Papp at 2 h, 200 μM (in vitro [2]): 270 ± 220 ×10⁻⁶ cm/s
Papp compared to that in the Caco-2 monolayer [3]: not significantly different
Compound: CC(C)NCC(O)COc1ccc(CC(N)=O)cc1 (stereo not drawn) [atenolol]
